Reference: publication PMC3688836
These are yes or no findings as the source states them, for the method shown. In cells and extracts the contact can be indirect. Some binding calls cover weakened binding; strength is not graded here.

Amino acid sequences for entries named in this document (tags omitted).
UniProt P31751: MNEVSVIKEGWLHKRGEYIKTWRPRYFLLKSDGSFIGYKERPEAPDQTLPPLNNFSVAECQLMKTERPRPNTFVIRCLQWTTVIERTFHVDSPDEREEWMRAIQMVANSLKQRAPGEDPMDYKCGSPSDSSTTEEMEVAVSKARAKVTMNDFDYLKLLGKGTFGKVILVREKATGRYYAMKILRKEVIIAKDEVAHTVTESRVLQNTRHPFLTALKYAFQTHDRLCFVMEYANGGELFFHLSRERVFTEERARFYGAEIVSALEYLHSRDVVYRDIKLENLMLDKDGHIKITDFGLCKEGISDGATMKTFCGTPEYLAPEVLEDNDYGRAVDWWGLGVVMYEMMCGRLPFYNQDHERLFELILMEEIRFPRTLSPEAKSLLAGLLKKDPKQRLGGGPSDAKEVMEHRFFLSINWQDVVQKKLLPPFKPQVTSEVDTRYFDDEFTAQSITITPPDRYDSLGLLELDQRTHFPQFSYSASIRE
UniProt P04406: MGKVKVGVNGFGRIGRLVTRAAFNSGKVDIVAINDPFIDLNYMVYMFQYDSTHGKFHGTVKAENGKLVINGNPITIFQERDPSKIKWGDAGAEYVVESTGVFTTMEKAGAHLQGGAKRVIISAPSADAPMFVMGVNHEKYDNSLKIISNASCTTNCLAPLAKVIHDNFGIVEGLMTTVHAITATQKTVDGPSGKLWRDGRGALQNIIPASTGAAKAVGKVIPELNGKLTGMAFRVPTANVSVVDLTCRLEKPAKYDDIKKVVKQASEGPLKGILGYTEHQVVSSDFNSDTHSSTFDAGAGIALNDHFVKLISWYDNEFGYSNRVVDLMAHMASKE
UniProt P06733: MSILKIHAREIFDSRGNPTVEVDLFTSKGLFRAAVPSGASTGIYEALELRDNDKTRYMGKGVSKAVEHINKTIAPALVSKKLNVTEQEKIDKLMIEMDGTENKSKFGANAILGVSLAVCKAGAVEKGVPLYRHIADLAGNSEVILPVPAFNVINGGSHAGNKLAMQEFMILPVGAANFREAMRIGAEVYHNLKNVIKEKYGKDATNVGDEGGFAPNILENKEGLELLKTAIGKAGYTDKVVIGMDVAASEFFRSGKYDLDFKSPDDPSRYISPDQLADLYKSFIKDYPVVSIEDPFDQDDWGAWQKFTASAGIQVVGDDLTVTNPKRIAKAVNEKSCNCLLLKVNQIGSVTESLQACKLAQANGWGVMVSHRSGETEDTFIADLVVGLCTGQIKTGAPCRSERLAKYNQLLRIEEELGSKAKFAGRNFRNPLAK

Biological target: AKT2-NTag (AKT2 N-terminally fused with a TAP-Tag consisting of HA-Tag, StrepII-Tag and FLAG-Tag) (UniProt P31751)
Assay: proximity ligation; Duolink in situ PLA on fixed, permeabilised HEK293T AKT2-NTag cells; anti-AKT2 (mouse) with anti-GAPDH, anti-ENO1 or anti-eEF2 (rabbit); controls with one primary antibody

binding | Substance
binds | Glyceraldehyde-3-phosphate-dehydrogenase (from UniProt P04406 1-335)
binds | α-enolase (from UniProt P06733 1-434)
